Results from the supplement of paper PMC9254222.
In all, about 1,100 compounds were measured (“Renilla luciferase signal (cell health) relative to plate median”: median about 0.97, highest 2% from about 1.6 on). Only a part is listed here, and it is no random draw.

Tested on: HEK293T (UBE3A T485A transfected, BAR Wnt reporter)
Assay: Renilla luciferase signal (cell health) relative to plate median (fold (linear ratio)); higher = higher Renilla signal
Settings: 24 h
Summary of the method: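 HEK293T cells were seeded at 4500 cells/well in white 384-well plates and grown in DMEM with 10% FBS at 37°C and 5% CO2. The cells were transfected using Fugene 6 with a BAR firefly luciferase Wnt reporter, TK-Renilla and an expression plasmid, and four hours later robots added the chemicals at 0.01–100 uM for 24 h before a Dual-Glo luciferase readout. Wnt activity was taken as the firefly/Renilla ratio and cell health as raw Renilla, each median-centred per plate. Values are averages of four biological replicates.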

SMILES | Renilla luciferase signal (concentration: 0.1 uM) | Renilla luciferase signal (concentration: 1 uM) | Renilla luciferase signal (concentration: 10 uM) | Renilla luciferase signal (concentration: 100 uM) | Renilla luciferase signal (concentration: 0.01 uM)
O=C1CCC(C2CCCCC2)CC1 [4-Cyclohexylcyclohexanone] | 0.847 | 0.903 | 0.905 | 1.09 | 
N=C(N)c1ccc(OCCCCCOc2ccc(C(=N)N)cc2)cc1.O=S(=O)(O)CCO.O=S(=O)(O)CCO [Pentamidine isethionate] | 1.02 | 2.37 | 0.453 | 0.0508 | 
CCO[Si](CCCNC(N)=O)(OCC)OCC [1-[3-(Triethoxysilyl)propyl]urea] | 1.15 | 1.08 | 1.12 | 1.4 | 
CCCCCCCCN(C)CCCCCCCC [N-Methyldioctylamine] | 1.08 | 1.13 | 1.27 | 1.53 | 
Oc1ccc2c(c1)-c1ccccc1C2 [3-Hydroxyfluorene] | 1.05 | 0.963 | 1.01 | 0.327 | 
CCN(CC)C(=O)c1cc(S(=O)(=O)Cc2ccccc2)c(N2CCC(c3ccccc3)CC2)cc1N(CC)CCN(C)C.O=C(O)C(F)(F)F [HMR1171 trifluoroacetate (1:1)] | 0.802 | 0.767 | 0.648 | 0.249 | 
CCCCCCC(C)OC(=O)COc1nc(F)c(Cl)c(N)c1Cl (stereo unspecified) [Fluroxypyr-meptyl] |  |  |  | 2.31 | 
C[C@@H]1C[C@H]2[C@@H]3CCC4=CC(=O)C=C[C@]4(C)[C@@]3(F)[C@@H](O)C[C@]2(C)[C@@]1(O)C(=O)COP(=O)([O-])[O-].[Na+].[Na+] [Dexamethasone sodium phosphate] | 0.714 | 0.748 | 0.748 | 0.77 | 
CCCCOC(=O)C(C)Oc1ccc(Oc2ccc(C(F)(F)F)cn2)cc1 (stereo unspecified) [Fluazifop-butyl] |  |  |  | 1.81 | 
c1cc(-c2ccncc2)ccn1 [4,4'-Bipyridine] | 0.84 | 0.887 | 0.924 | 1.1 | 
C/C=C/C=C/C(=O)O [Sorbic acid] | 0.585 | 0.806 | 0.746 | 0.351 | 
NC(CCCP(=O)(O)O)C(=O)O (racemic) | 0.901 | 1.22 | 1.06 | 2.45 | 0.767
O=C(NS(=O)(=O)/C=C/c1cccs1)c1ccc(F)cc1Br | 0.767 | 0.559 | 0.332 | 0.277 | 
OB(O)O [Boric acid] | 0.807 | 0.865 | 0.866 | 1.37 | 0.818
CC(N)=O [Acetamide] | 0.73 | 0.725 | 0.745 | 0.667 | 
CCCCCCCCCCC [Undecane] | 0.95 | 0.969 | 1.01 | 1.25 | 
CC1(C)C(=O)NC(=O)N1CO [1-(Hydroxymethyl)-5,5-dimethylhydantoin] | 0.8 | 0.834 | 0.691 | 0.734 | 
CC(=O)OCC(COC(C)=O)OC(C)=O [Triacetin] | 0.684 | 0.682 | 0.588 | 0.954 | 
CN(C)CCCN(C)CCCN(C)C [2,6,10-Trimethyl-2,6,10-triazaundecane] | 0.932 | 0.811 | 0.918 | 0.932 | 
C=CCc1ccc(O)c(OC)c1 [Eugenol] | 1.14 | 1.24 | 1.32 | 1.44 | 
O=C(Nc1ccc(Cl)cc1)Nc1ccc(Cl)c(Cl)c1 [Triclocarban] | 1 | 0.895 | 0.408 | 0.021 | 

SMILES | Renilla luciferase signal (concentration: 0.1 uM) | Renilla luciferase signal (concentration: 1 uM) | Renilla luciferase signal (concentration: 10 uM) | Renilla luciferase signal (concentration: 100 uM) | Renilla luciferase signal (concentration: 0.01 uM)
c1ccc2ncccc2c1 [Quinoline] | 1.03 | 1.01 | 0.866 | 1.02 | 
O=C(CCCCCCC(=O)Nc1ccccc1)NO [Vorinostat (SAHA)] | 0.696 | 0.751 | 0.189 | 0.0167 | 0.795
Cc1occc1C(=O)Nc1ccc(C(=O)N2CCC(F)(F)/C(=C\C(=O)N3CCC(N4CCCCC4)CC3)c3ccccc32)cc1.Cc1occc1C(=O)Nc1ccc(C(=O)N2CCC(F)(F)/C(=C\C(=O)N3CCC(N4CCCCC4)CC3)c3ccccc32)cc1.O=C(O)/C=C/C(=O)O | 1.05 | 1.08 | 0.939 | 0.0352 | 
CCCCCCCCCCCCCO [1-Tridecanol] | 1.24 | 1.19 | 1.31 | 1.29 | 
Cc1cc(C)c(O)c(C)c1 [2,4,6-Trimethylphenol] | 1 | 0.968 | 0.971 | 1.28 | 
CCCCCCCCC(=O)O [Nonanoic acid] | 0.743 | 0.854 | 0.901 | 0.975 | 
CN1CCCC1=O [N-Methyl-2-pyrrolidone] | 1.1 | 1.12 | 1.22 | 1.31 | 
CC[C@H]1OC(=O)[C@H](C)[C@@H](O[C@H]2C[C@@](C)(OC)[C@@H](O)[C@H](C)O2)[C@H](C)[C@@H](O[C@@H]2O[C@H](C)C[C@H](N(C)C)[C@H]2O)[C@](C)(O)C[C@@H](C)C(=O)[C@H](C)[C@@H](O)[C@]1(C)O [Erythromycin] |  |  | 2.38 | 5.97 | 
CCCCC(CC)COC(=O)CCCCC(=O)OCc1ccccc1 (stereo unspecified) [Benzyloctyl adipate] | 1.06 | 1.07 | 0.987 | 1.15 | 
OC(Cn1cncn1)(Cn1cncn1)c1ccc(F)cc1F [Fluconazole] | 0.97 | 1.05 | 0.973 | 0.951 | 
Nc1nc(Cl)nc2c1ncn2[C@H]1C[C@H](O)[C@@H](CO)O1 [Cladribine] | 1.2 | 1.14 | 0.6 | 0.0197 | 
CCOCCO [2-Ethoxyethanol] | 1.23 | 1.26 | 1.38 | 1.66 | 
C#C[C@]1(O)CC[C@H]2[C@@H]3CCc4cc(O)ccc4[C@H]3CC[C@@]21C [17alpha-Ethinylestradiol] | 0.567 | 1.05 | 1.01 | 0.104 | 
O=C(O)Cn1c(=O)n(Cc2ccc(Br)cc2F)c(=O)c2ccc(Cl)cc21 [Zenarestat] | 1.11 | 0.96 | 1.03 | 0.927 | 
COc1ccc([N+](=O)[O-])cc1N [2-Methoxy-5-nitroaniline] | 0.977 | 1.08 | 0.973 | 0.884 | 
Cc1cc2c(cc1C(F)(F)F)N(C(=O)Nc1ccc(Oc3cccnc3C)nc1)CC2.Cl | 1 | 0.823 | 0.656 | 0.6 | 
C1CNCCN1 [Piperazine] | 0.493 | 0.699 | 0.718 | 0.971 | 
CC(C)=CCC/C(C)=C/CO [Geraniol] | 0.81 | 0.784 | 0.843 | 0.959 | 
CCCC(=O)OCC [Ethyl butyrate] | 1.01 | 1.17 | 1.21 | 0.875 | 
Cc1nc(-c2ccccn2)ncc1C(=O)Nn1cc(C)c2cc(F)ccc21 | 0.941 | 0.877 | 1.05 | 1.02 | 
N#CSCSc1nc2ccccc2s1 [2-(Thiocyanomethylthio)benzothiazole] | 1.06 | 1.07 | 1.05 | 0.00942 | 0.977

SMILES | Renilla luciferase signal (concentration: 0.1 uM) | Renilla luciferase signal (concentration: 1 uM) | Renilla luciferase signal (concentration: 10 uM) | Renilla luciferase signal (concentration: 100 uM) | Renilla luciferase signal (concentration: 0.01 uM)
CC[C@H](C)[C@@H](C(=O)O)n1sc2ccccc2c1=O | 0.944 | 1.08 | 1.57 | 1.49 | 
Oc1cc2ccccc2c2ccccc12 [9-Phenanthrol] | 1.08 | 1.05 | 1.01 | 0.0207 | 
C#C[C@]1(O)CC[C@H]2[C@@H]3CCC4=CC(=O)CC[C@@H]4[C@H]3CC[C@@]21C [Norethindrone] | 0.942 | 0.982 | 0.94 | 0.294 | 
Oc1ccc2ccccc2c1/N=N/c1ccccc1 [C.I. Solvent Yellow 14] | 0.859 | 0.853 | 0.859 | 1.03 | 
COCC(C)O (stereo unspecified) [1-Methoxy-2-propanol] | 0.936 | 1.12 | 1.25 | 1.5 | 
CC(=O)OC/C=C(\C)CCC=C(C)C [Geranyl acetate] | 0.968 | 1.04 | 0.975 | 1.16 | 
COc1ccc(C(=O)Nc2nc3ccccc3c(NCc3ccccc3)c2C#N)cc1 | 0.975 | 0.949 | 0.982 | 0.154 | 
CNC(C)=O [N-Methylacetamide] | 0.866 | 0.862 | 0.953 | 1.02 | 
C=CC(=C)CCC=C(C)C [Myrcene] | 0.922 | 0.881 | 0.926 | 1 | 
Cl.NCC1(Cc2noc(=O)[nH]2)CCCCC1 | 0.881 | 0.861 | 0.847 | 0.932 | 
CC(=O)S[C@@H]1CC2=CC(=O)CC[C@]2(C)[C@H]2CC[C@@]3(C)[C@@H](CC[C@@]34CCC(=O)O4)[C@H]12 [Spironolactone] | 1.02 | 1.07 | 1.41 | 0.763 | 
CC[C@H](c1ccc(O)cc1)[C@@H](CC)c1ccc(O)cc1 [meso-Hexestrol] | 0.857 | 0.945 | 0.742 | 0.808 | 
CCCCCCCCCCCCCCCC [Hexadecane] | 0.903 | 0.847 | 1.01 | 0.946 | 
O=C(Nc1ccc([N+](=O)[O-])cc1Cl)c1cc(Cl)ccc1O [Niclosamide] | 1.33 | 0.273 | 0.00822 | 0.0081 | 1.45
CCCCCOC(C)=O [Pentyl acetate] | 1.13 | 1.15 | 1.15 | 1.18 | 
Cl.Nc1ccn([C@@H]2O[C@H](CO)[C@@H](O)[C@@H]2O)c(=O)n1 [Cytarabine hydrochloride] | 0.829 | 0.907 | 0.626 | 0.809 | 
Cc1ncc(CO)c(CO)c1O [Pyridoxine] | 0.951 | 0.873 | 1 | 1.14 | 
CCN(CC)CCNc1ccc(CNC=O)c2sc3ccc(OC)cc3c(=O)c12 | 0.886 | 0.626 | 0.193 | 0.0173 | 
Cl.Cn1c(=O)cc(Oc2ccc(F)cc2F)c2cnc(NCC(C)(C)O)nc21 | 0.797 | 0.843 | 0.729 | 0.205 | 

4 entries from above, reformatted:
SMILES	Renilla luciferase signal (concentration: 0.1 uM)	Renilla luciferase signal (concentration: 1 uM)	Renilla luciferase signal (concentration: 10 uM)	Renilla luciferase signal (concentration: 100 uM)	Renilla luciferase signal (concentration: 0.01 uM)
COc1ccc(C(=O)Nc2nc3ccccc3c(NCc3ccccc3)c2C#N)cc1	0.975	0.949	0.982	0.154	
C=CC(=C)CCC=C(C)C [Myrcene]	0.922	0.881	0.926	1	
Cl.NCC1(Cc2noc(=O)[nH]2)CCCCC1	0.881	0.861	0.847	0.932	
Cl.Cn1c(=O)cc(Oc2ccc(F)cc2F)c2cnc(NCC(C)(C)O)nc21	0.797	0.843	0.729	0.205	
